From PubChem BioAssay AID1740 (National Center for Advancing Translational Sciences (NCATS), 2009)
Several values for one entry are separate records, joined by “and”; a condition that tells them apart may be missing. Identical values can stand only once. This list was built around the results that the source calls inconclusive (neither active nor inactive); the mix of calls is not that of the screen. Potencies of inconclusive entries are doubtful fits and often do not repeat. Activity calls are given as the source filed them. Calls follow the shape of the dose curve; as a rule, active = well fitted activation curve with a large enough effect; inconclusive = small, poorly fitted or top-dose-only effect; inactive = no such curve, though single readings can be large or run the other way.

Assay: Confirmation Concentration-Response Assay for Enhancers of SMN2 Splice Variant Expression
Details: HEK293 SMN2-exon7-luciferase splicing reporter, luminescence, 30-36 h; series mostly up to 22.7 µM
Excerpt: NIH Chemical Genomics Center [NCGC] NIH Molecular Libraries Probe Production centers Network [MLPCN] MLPCN Grant: R03 MH084179-01 Assay Submitter (PI): Elliot Androphy NCGC Assay Overview: Spinal muscular atrophy (SMA) is caused by insufficient levels of the survival motor neuron protein SMN. The SMN locus on chromosome 5q13 contains two inverted copies of SMN called SMN1 and SMN2 which are 99% identical at the amino acid level. SMN1 is a fully functional protein and SMN2 skips exon 7 90% of the time. Skipping of exon 7 produces non-functional protein product. 10% of the SMN2 protein includes exon 7 and is fully functional. In the SMA disease state, mutations in the SMN1 locus are the cause of the disease state. Because only 10% of SMN2 is of the fully functional form, it is not sufficient to overcome the deficiency produced by the loss of the SMN1 product. A therapy that either increase the amount of SMN2 product made or to increase the inclusion of exon 7 has been proposed for the treatment of SMA. We have designed an assay to identify small molecules that can increase the amount of functional SMN2 product by appending a luciferase reporter gene after the native SMN2 gene, such that inclusion of exon 7 in the expressed product places the luciferase sequence in frame, thus generating functional luciferase enzyme.
NCGC Assay Protocol Summary: This screen utilizes a luciferase reporter gene assay, combining the promoter with the major portion of the native SMN2 cDNA (exons 1 -7, intron 8 , exon 8 fused to luciferase) stably expressed in HEK293 cells. Compounds that increase luciferase signal presumably enhance expression of the functional SMN2 splice variant. Passaging media contained DMEM w/ glutamax (+phenol red) 10% FCS, 1x pen/strep, 200 ug/ml hygro, 1x sodium pyruvate. Assay media contained DMEM w/ glutamax (-phenol red) 10% FCS, 1x pen strep, 1x pyruvate Sequence, Parameter, Value, Description (1) Cells, 5 uL, 2000 cells/well, 1536 TC treated White solid bottom plate (2) Time, 10-12 hours, 37C 5% CO2 (3) Compound, 23 nl, MLSMR Library (4) Control Compound, 23 nL, Sodium butyrate st 4.5mM (final) conc (5) Time, 30-36 hours, 37C 5% CO2 (6) Reagent, 3 ul, One Glo (TM) from Promega (7) Time, 5-15 minutes, Room temp (8) Detector, Viewlux: luminescent read, 60 second integration, high speed 2x binning Keywords: Spinal muscular atrophy, SMA, SMN2, high throughput screening, MLSMR, MLPCN, NIH Roadmap, qHTS and NCGC

Row | Compound | Potency
1 | CN1CCN(c2nc(-c3ccc(Br)cc3)nnc2-c2ccccc2)CC1 | inconclusive: 15.8 µM [activator, single point]
2 | COc1nc(-c2ccccc2)nnc1-c1ccccc1 | active: 2.51 µM
3 | Brc1ccc(-c2nnc(-c3ccccc3)c(N3CCSCC3)n2)cc1 | inconclusive: 7.08 µM [activator, partial curve, poor fit]
4 | OCCCNc1nc(-c2ccc(Cl)cc2)nnc1-c1ccccc1 | inconclusive: 2.51 µM [activator, partial curve, poor fit]
5 | Cc1ccc(C(=O)Cn2c3c(sc2=N)CCCC3)cc1 | inconclusive: 56.2 nM [activator, full curve, poor fit] and inconclusive: 35.5 nM [activator, full curve, poor fit]
6 | CCOc1ccc2nc(N3CCC(C(=O)N4CCN(c5ccccn5)CC4)CC3)sc2c1 | inactive
7 | Cc1oncc1C(=O)Nc1ccc(C(F)(F)F)cc1 | active: 7.08 µM
8 | CCOC(=O)c1c(-c2cccc(C)c2)csc1NC(=O)c1c(-c2ccccc2)noc1C | inconclusive: 0.398 µM [activator, full curve, poor fit]
9 | Cc1ccc(-c2nnc(-c3ccccc3)c(-c3ccccc3)n2)cc1 | inactive
10 | O=C(O)c1cccc(COc2ccc(CO)cc2Cl)c1 | inconclusive: 0.0089 µM [activator, full curve, poor fit]
11 | COCCCN1C(=O)C(=O)/C(=C(/O)c2ccc3c(c2)CC(C)O3)C1c1cccnc1 (stereo not drawn) | inactive
12 | CC(C)Nc1nc(-c2ccccc2)nnc1-c1ccccc1 | inconclusive: 12.6 µM [activator, partial curve, poor fit]
13 | Clc1ccc(-c2nnc(-c3ccccc3)c(N3CCSCC3)n2)cc1 | inactive
